Results are given in words; binding and its absence hold for the method and conditions named. Some results given as binding are weak or reduced against the parent protein; the word gives no strength.
How the values were obtained:
[1] = biological target: recombinant human TLR3 extracellular domain (R&D Systems) (human) (UniProt O15455); experiment: SPR on rhTLR3 chip, neutral pH 7.2
[2] = biological target: recombinant human TLR3 extracellular domain (R&D Systems) (human) (UniProt O15455); experiment: SPR, pH 5.6, rhTLR3 chip first saturated with polyAU
[3] = biological target: recombinant human TLR3 extracellular domain (R&D Systems) (human) (UniProt O15455); experiment: SPR, pH 5.6, human TLR3 chip previously incubated with polyAU
[4] = biological target: recombinant human TLR3 extracellular domain (R&D Systems) (human) (UniProt O15455); experiment: SPR, human TLR3 chip previously incubated with polyAU (FIG. 10A legend)
[5] = biological target: recombinant human TLR3 extracellular domain (R&D Systems) (human) (UniProt O15455); experiment: SPR, TLR3 chip with or without previous incubation with polyAU (FIG. 9 legend)
[6] = biological target: recombinant human TLR3 extracellular domain (R&D Systems) (human) (UniProt O15455); experiment: SPR competition (Biacore T100) in acidic buffer pH 5.6: rhTLR3 chip saturated with 31C3 (50 µg/ml) or not, then test antibody 50 µg/ml for 2 min
[7] = biological target: recombinant human TLR3 extracellular domain (R&D Systems) (human) (UniProt O15455); experiment: SPR (Biacore T100) at pH 5.6 (10 mM sodium acetate, 150 mM NaCl, 0.05% P20): rhTLR3 chip, polyAU 100 µg/ml or buffer first, then antibody 50 µg/ml for 2 min
[8] = biological target: recombinant human TLR3 extracellular domain (R&D Systems) (human) (UniProt O15455); experiment: SPR binding analysis on rhTLR3 chip, neutral pH, antibody 10 µg/ml
[9] = biological target: recombinant human TLR3 extracellular domain (R&D Systems) (human) (UniProt O15455); experiment: SPR (Biacore T100, 25 C): recombinant human TLR3 immobilised on a CM5 chip, antibody 10 µg/ml injected for 2 min in HBS-EP+ (neutral pH)
[10] = biological target: recombinant human TLR3 extracellular domain (R&D Systems) (human) (UniProt O15455); experiment: SPR competition (Biacore T100) in acidic buffer pH 5.6: rhTLR3 chip saturated with the first antibody (50 µg/ml) or given buffer, then second antibody 50 µg/ml for 2 min
[11] = biological target: recombinant human TLR3 extracellular domain (R&D Systems) (human) (UniProt O15455); experiment: ELISA, hybridoma supernatant on His-tagged recombinant TLR3 coated on Ni-NTA plates
[12] = biological target: recombinant human TLR3 extracellular domain (R&D Systems) (human) (UniProt O15455); experiment: SPR (Biacore): rhTLR3 chip, 34A3 injected after buffer or after saturation of the chip with 31C3

Protein sequences, listed by entry. Tags and fused reporters are not part of them. Lines headed by an entry give the natural chain unless they say otherwise; changes in a name come on top.
UniProt O15455: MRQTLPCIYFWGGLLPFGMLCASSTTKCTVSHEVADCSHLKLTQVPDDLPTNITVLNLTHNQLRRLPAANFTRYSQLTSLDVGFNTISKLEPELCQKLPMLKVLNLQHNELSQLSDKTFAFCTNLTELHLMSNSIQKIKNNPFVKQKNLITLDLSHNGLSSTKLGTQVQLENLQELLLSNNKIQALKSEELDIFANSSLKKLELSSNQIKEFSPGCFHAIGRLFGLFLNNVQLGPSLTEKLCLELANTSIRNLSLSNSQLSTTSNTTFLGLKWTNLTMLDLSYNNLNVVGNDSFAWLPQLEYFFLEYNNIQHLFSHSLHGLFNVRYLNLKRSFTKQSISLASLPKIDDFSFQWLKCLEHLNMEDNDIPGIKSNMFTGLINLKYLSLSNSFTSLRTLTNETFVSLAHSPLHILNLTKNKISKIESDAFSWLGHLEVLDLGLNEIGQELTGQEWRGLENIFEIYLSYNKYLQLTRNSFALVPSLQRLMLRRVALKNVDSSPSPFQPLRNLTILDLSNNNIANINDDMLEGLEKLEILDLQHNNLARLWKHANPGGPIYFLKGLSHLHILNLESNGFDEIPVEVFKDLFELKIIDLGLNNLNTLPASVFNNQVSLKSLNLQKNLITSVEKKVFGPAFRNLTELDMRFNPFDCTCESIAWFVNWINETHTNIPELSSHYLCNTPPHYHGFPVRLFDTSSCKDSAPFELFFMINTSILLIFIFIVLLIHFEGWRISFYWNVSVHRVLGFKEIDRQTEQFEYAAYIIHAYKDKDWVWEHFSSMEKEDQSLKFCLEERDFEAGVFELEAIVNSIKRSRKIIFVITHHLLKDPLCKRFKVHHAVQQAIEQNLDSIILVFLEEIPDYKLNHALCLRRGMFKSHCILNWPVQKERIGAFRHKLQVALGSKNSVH

Measured: binding

B1: antibody 28F11 (antibody, V domains shown)
VH: EVQLQQSGPELVKPGASVKISCKASGYSFTGYYIHWVKQSHVKSLEWIGRINPYYGATSYNQNFKDKANLTVDKSSSTAYMELHSLTSDDSAVYYCARSTKLGYLDYWGQGTTLTVS
VL: DIQMTQSPASLSASVGETVTITCRASENIYSNLAWYQQKQGKSPQLLIYNAKTLAEGVPSRFSGSGSGTQYFLKINSLQPEDFGSYYCQHHYGTPFTFGGGTKLEIK
binds: [1] | [2] | [3] | [4] | [5] | [6] | [7]

B2: antibody 23C8 (antibody, V domains shown)
VH: EVQLQQSGPELVKPGASVKISCKASGYSFTGYFMHWVKQSHVKSLEWIGRINPYNGATSYNQNFKDKASLTVDKSSSTSYMELHSLTSEDSAVYYCVRDDGGNYPFDYWGQGTTLTVS
VL: DIQMTQSPASLSASVGETVTITCRASENIYSYLAWYQQKQGKSPQLLVYYAKTLAEGVPSRFSGSGTGTQFSLKINSLQPEDFGSYYCQHHYGTPYTFGGGTKLEIK
notes: also called 23C8.4
binds: [1] | [2] | [3] | [4] | [5] | [6] | [7]

B3: antibody 29H3 (antibody, V domains shown)
VH: DVQLQESGPDLVKPSQSLSLTCTVTGYSITSGYSWHWIRQFLGNKLEWMGYIHYSGITNYNPSLRSRISFTRDTSKNQFFLQLNSVTTEDTATYYCARDGYYGMDYWGQGTSVTVS
VL: DIVMTQSQKFMSTSVGDRVSITCKASQNVRTSVAWYQQKPGQSPKALIYLASNRHTGVPDRFTGSGSGTDFTLTVSNIQSEDLADYFCLQHWNYPYTFGGGTKLEIK
notes: also called 29H3.7; CNCM I-4187
binds: [1] | [2] | [3] | [8] | [4] | [5] | [9] | [7] | [10]

B4: antibody 34A3 (antibody, V domains shown)
VH: EIQLQQSGPELVKPGASVKVSCKASGYVFTTYSIYWVKQSHGKSLEWIGYIDPYNGDTSYNQKFKGKATLTVDKSSSTAYMHLNSLTSEDSTVYYCAREGNYYGYFDYWGQGTTLTVS
VL: QIVLTQSPALMSASPGEKVTMTCSASSSVSYMFWYQQKPRSSPKPWIYLTSNLASGVPARFSGSGSGTSYSLTISSMEAEDAATYYCQQWTGNPPTFGGGTKLEIK
notes: Mouse hybridoma antibody (Balb/c, immunization series #2); also called 34A3.5; printed 34A4, 32A4 and 34A2 in some places
binds: [1] | [2] | [5] | [11] | [12] | [7]

Source: US20140065154A1, “TLR3 BINDING AGENTS” (INNATE PHARMA, priority 2011, published 2014)
